Test: general procedure: Fmoc solid-phase peptide synthesis; TentaGel TGR or Sieber amide resin (0.2 mmol/g or 0.5 mmol/g); TBTU/DIEA
Settings: conjugation step

| Substance | conjugation yield [%] |
| --- | --- |
| 1st Generation Insulin-N^εB29-Mpa-Dendrimer (78) | 43 |
| 3rd Generation Insulin-N^εB29-Mpa-Dendrimer (80) | 38 |
| 2nd Generation Insulin-N^εB29-Mpa-Dendrimer (79) | 40 |

Reference: patent publication US8450097 (dated 2013)
